Experimental data from US4521418A, “Guanidinothiazolyl derivatives” (Smith Kline & French Laboratories Limited, priority 1979, dated 1985).
Some entries share one result that the patent states for a list of compounds.

Test system: histamine H2 -receptors
Test: inhibition of histamine-stimulated secretion of gastric acid from the lumen-perfused stomachs of rats anaesthetised with urethane
Type: in vivo
Conditions: lumen-perfused stomach, urethane-anaesthetised rat, intravenously

SMILES | dose causing 50% inhibition of maximal acid secretion
N=C(N)Nc1nc(CSCCNc2ncc(Cc3cccnc3)c(=O)[nH]2)cs1 [Example 1, 2-[2-(2-guanidino-4-thiazolylmethylthio)ethylamino]-5-(3-pyridylmethyl)-4-pyrimidone] | less than 0.1 micromole kg^-1
NC(N)=Nc1nc(CSCCNc2ncc(Cc3ccc4c(c3)OCO4)c(=O)[nH]2)cs1 [Example 2, 2-[2-(2-guanidino-4-thiazolylmethylthio)ethylamino]-5-(5-(1,3-benzodioxolyl)methyl)-4-pyrimidone] | less than 0.1 micromole kg^-1
Cc1ccc(Cc2cnc(NCCSCc3csc(NC(=N)N)n3)[nH]c2=O)cn1 [Example 3, 2-[2-(2-guanidino-4-thiazolylmethylthio)ethylamino]-5-(6-methyl-3-pyridylmethyl)-4-pyrimidone] | less than 0.1 micromole kg^-1
